Data set [1] concerns TR/CAR chimera (TRbeta A/B and C domains fused to CAR D, E and F domains). Kind of data set: activity in cells. The settings on record: JEG3; constitutive, over 50% of intact TR response; protein in cells; only the site is given.
Data set [2] deals with T1, human CAR (cotransfected) (Homo sapiens) (UniProt Q14994).
T1 sequence (limits assumed): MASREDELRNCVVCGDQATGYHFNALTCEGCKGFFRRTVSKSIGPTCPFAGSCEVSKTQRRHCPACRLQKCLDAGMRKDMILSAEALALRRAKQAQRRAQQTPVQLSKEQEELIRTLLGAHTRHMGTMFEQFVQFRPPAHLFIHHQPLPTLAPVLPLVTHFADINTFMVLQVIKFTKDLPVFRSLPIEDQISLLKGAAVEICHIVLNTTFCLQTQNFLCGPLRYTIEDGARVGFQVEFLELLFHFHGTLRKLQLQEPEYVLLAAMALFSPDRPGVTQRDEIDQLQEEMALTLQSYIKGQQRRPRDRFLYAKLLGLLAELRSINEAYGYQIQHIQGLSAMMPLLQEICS
Kind of data set: activity in cells. To be noted: 3 copies upstream of TK promoter, HepG2, charcoal-stripped serum; protein in cells; only the site is given.

For data set [3], the system named is T2, mCAR2 (cotransfected) (Mus musculus).
T2 sequence (looked up, limits assumed): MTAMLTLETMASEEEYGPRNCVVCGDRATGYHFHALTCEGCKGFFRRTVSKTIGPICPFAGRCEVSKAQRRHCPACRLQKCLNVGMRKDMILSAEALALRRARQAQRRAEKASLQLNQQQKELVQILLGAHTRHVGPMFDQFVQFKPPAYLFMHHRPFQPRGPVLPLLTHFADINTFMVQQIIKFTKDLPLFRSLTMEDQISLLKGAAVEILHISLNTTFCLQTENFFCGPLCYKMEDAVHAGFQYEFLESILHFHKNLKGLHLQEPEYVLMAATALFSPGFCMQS
Kind of data set: activity in cells. The settings on record: no transactivation; protein in cells; only the site is given.

For data set [4], the system named is mCAR1 D8 (AF-2 deletion) + RXR C-terminal deletion D8 (Mus musculus). Kind of data set: EMSA. The settings on record: transactivation abolished; protein in a lysate after overexpression; protein details: N-terminal epitope tag, COSM6 whole cell extract.
For data set [5], the system named is mCAR1 E355A + RXR (Mus musculus). Kind of data set: EMSA. To be noted: transactivation abolished; protein in a lysate after overexpression; protein details: N-terminal epitope tag, COSM6 whole cell extract.
Data set [6] has as its system mCAR1 D27 (C-terminal deletion) + RXR (Mus musculus). Kind of data set: EMSA. The settings on record: transactivation abolished; protein in a lysate after overexpression; protein details: N-terminal epitope tag, COSM6 whole cell extract. (A gel shift assay detects complexes by their altered migration in electrophoresis.)
Data set [7] has as its system mCAR1 L353A + RXR (Mus musculus). Kind of data set: EMSA. To be noted: transactivation abolished; protein in a lysate after overexpression; protein details: N-terminal epitope tag, COSM6 whole cell extract.

For some of these results: Negatives hold for the conditions tested. For some of these results: Where a protein sequence is shown, tags need not be part of it. For some of these results: Where cells or extracts were used, other partners may take part. For some of these results: Construct, isoform or probe ends are uncertain for at least one entry.

This is an account of results in US6989242.

Turning to “AAAGGTAAGATCAGGGACGTGACCGCAG (double strand) [T3RE reporter element]”, the “activity on this sequence” value in data set [1] is “active”.
Turning to “GGGTAGGGTTCACCGAAAGTTCACTCG (double strand) [betaRARE (RARbeta2 promoter DR-5)]”, the “activity on this sequence” value is recorded as “active” in data set [2] and “not active” in data set [3]. Moreover, the binding result is “binds” in data set [4], “binds” in data set [5], “no binding” in data set [6] and “binds” in data set [7].
